The other results are listed elsewhere or left out. Further columns of the screen follow, without active or inactive calls. Compounds called inactive in the main read-out are mostly missing here. Words in brackets tell the shape of the fitted curve; partial curves, single points and poor fits give uncertain potencies.
assay: Cell signaling CRE-BLA (Fsk stim); conditions: CHO CRE-bla reporter (cAMP response element driving beta-lactamase), forskolin EC10, beta-lactamase ratio; measured here: 460 nm blue channel
Method in brief: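 Reporter-gene assay: CHO cells with beta-lactamase behind cAMP responsive elements, co-treated with compound and EC10 NKH 477 for 3 hours at 37 degrees Celsius. Activity came from the 460/530 nm CCF4 emission ratio.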

| SMILES | AC50 |
| --- | --- |
| CSc1ccc(Cl)c(C(=O)OCC(=O)NCc2ccco2)c1 | 15.8 µM [falling, single point] |
| COc1ncc2nc(-c3cn(C)c4ccccc34)c(=O)n(C)c2n1 | 15.8 µM [rising, partial curve] |
| COc1cccc2c(=O)n(CC(=O)NC3CCCCC3)ccc12 | 7.94 µM [rising, partial curve] |
| CCCCCN(C(=O)NC(=O)Nc1nncs1)S(C)(=O)=O | 5.01 µM [falling, single point] |
| Cn1c(CCN2CCOCC2)nc2cc(NC(=O)COc3ccccc3)ccc21 | 3.16 µM [rising, partial curve] |
| O=C(NCC1CCCO1)C1CCCN(S(=O)(=O)c2cccc3nsnc23)C1 (stereo not drawn) | 10 µM [falling, partial curve] |
| C=CCOc1ccc(CN(C)CC(=O)N(CC(C)C)c2c(N)n(CC(C)C)c(=O)[nH]c2=O)cc1 | 5.01 µM [falling, single point] |
| CCCC(=O)Nc1cc(-c2nn(C)c(=O)c3ccccc23)ccc1OC | 10 µM [rising, partial curve] |
| C#CCNc1nc(C)nc2c1nnn2Cc1ccccc1F | 10 µM [rising, partial curve] |
| Cc1ccnc(NC(=O)CCc2c(C)nc3ncnn3c2C)c1 | 1.26 µM [falling, partial curve, poor fit] |
| Cc1cc(C)c2c(n1)sc1c(N3CCOCC3)ncnc12 | 20 µM [falling, single point] |
| O=C(CN1C(=O)CCC1=O)Nc1nc(-c2ccc(Cl)s2)cs1 | 15.8 µM [rising, partial curve] |
| CCOc1ccc(NS(=O)(=O)c2ccc3[nH]cc(C(=O)NCC4CCCO4)c(=O)c3c2)cc1 (stereo not drawn) | 0.00398 µM [falling, full curve, poor fit] |
| N#CCCn1c(=O)c(-c2cc(F)cc(F)c2)nc2cnc(Oc3ccccc3)nc21 | 15.8 µM [rising, partial curve] |
| Cc1ccc(Cn2c(=S)[nH]c3ccc(N4CCOCC4)cc3c2=O)o1 | 3.98 µM [falling, partial curve, poor fit] |
| COc1cccc(Cn2c(=O)c(-c3cccc(Cl)c3)nc3cncnc32)c1 | 7.94 µM [rising, partial curve] |
| CCn1cc(C(=O)O)c(=O)c2cnc(N3CCN(C(=O)Nc4cccc5ccccc45)CC3)nc21 | 25.1 µM [rising, single point] |
| C=CCSc1nc2c(c(=O)[nH]c(=O)n2C)n1C/C=C(/C)Cl | 12.6 µM [rising, partial curve] |

As a short view, some entries already given:

| SMILES | AC50 |
| --- | --- |
| Cn1c(CCN2CCOCC2)nc2cc(NC(=O)COc3ccccc3)ccc21 | 3.16 µM [rising, partial curve] |
| O=C(NCC1CCCO1)C1CCCN(S(=O)(=O)c2cccc3nsnc23)C1 (stereo not drawn) | 10 µM [falling, partial curve] |
| C=CCOc1ccc(CN(C)CC(=O)N(CC(C)C)c2c(N)n(CC(C)C)c(=O)[nH]c2=O)cc1 | 5.01 µM [falling, single point] |

— PubChem BioAssay AID662 (National Center for Advancing Translational Sciences (NCATS), 2007)
